Assay results from paper PMC10353892.
Substitutions are numbered along the chain they refer to. Results are given in words; binding and its absence hold for the method and conditions named. Binding seen in cells or lysates may run through a third protein. Here binding means that the protein was enriched with, or labelled near, the bait; the list need not be complete. Where a sequence is shown, tags or fusion partners need not be part of it.

Chains of the proteins cited; added tags and fusions are not shown.
UniProt P23696: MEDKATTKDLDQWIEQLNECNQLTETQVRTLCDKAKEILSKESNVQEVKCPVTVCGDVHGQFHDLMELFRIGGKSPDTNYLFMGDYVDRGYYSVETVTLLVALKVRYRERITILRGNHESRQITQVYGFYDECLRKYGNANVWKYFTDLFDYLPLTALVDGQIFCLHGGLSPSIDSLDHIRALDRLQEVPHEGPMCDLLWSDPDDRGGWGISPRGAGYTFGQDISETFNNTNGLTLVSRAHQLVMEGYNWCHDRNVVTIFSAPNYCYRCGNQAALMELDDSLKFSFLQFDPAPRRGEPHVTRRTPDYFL

Columns and labels:
Assay in all cases: affinity purification with mass spectrometry; GFP-Trap agarose on lysates of 0-2 h embryos expressing the GFP fusion, GFP alone as control; 20 mM Tris pH 7.5, 150 mM NaCl, 2 mM MgCl2, 0.5% Triton X-100, 4°C; three experiments
GFP-Tws (Drosophila) = target: T1, GFP-Tws (Drosophila) (UniProt P36872)
T1 sequence: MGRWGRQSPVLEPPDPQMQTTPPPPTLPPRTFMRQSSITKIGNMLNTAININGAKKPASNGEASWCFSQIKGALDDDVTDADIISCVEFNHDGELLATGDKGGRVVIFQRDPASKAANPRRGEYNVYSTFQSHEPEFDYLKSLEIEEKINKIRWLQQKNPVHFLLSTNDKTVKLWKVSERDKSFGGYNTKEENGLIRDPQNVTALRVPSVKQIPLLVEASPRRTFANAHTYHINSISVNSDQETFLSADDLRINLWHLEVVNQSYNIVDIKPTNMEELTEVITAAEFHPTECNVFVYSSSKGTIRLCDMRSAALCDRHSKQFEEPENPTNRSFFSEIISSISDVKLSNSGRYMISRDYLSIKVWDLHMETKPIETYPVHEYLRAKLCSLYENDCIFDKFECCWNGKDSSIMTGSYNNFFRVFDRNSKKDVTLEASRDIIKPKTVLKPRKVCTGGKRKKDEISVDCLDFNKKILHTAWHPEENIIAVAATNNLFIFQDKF

Tws-GFP (Drosophila) = target: T2, Tws-GFP (Drosophila) (UniProt P36872)
T2 sequence: T1 sequence

[1] = target: T3, GFP-Ote^DD (transgenic embryos) (Drosophila) (UniProt P20240)
T3 sequence: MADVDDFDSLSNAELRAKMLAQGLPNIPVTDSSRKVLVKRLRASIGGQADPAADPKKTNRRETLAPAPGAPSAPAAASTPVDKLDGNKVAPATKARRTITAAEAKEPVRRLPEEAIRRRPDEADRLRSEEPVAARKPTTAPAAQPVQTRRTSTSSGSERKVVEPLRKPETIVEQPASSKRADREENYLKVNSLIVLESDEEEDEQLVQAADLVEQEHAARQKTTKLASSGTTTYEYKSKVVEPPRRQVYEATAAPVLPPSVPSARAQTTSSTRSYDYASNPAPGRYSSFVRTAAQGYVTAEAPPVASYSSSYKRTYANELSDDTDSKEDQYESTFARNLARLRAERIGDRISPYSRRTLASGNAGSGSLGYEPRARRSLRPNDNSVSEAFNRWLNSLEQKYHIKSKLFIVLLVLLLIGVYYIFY

[2] = target: T4, GFP-Ote^AA (transgenic embryos) (Drosophila) (UniProt P20240)
T4 sequence: T3 sequence with D50A, D54A

[3] = target: T5, GFP-Ote^WT (transgenic embryos) (Drosophila) (UniProt P20240)
T5 sequence: T3 sequence with D50S, D54S

## Mts (from UniProt P23696 1-309) (enzyme)
GFP-Tws (Drosophila)
  binding: binds
Tws-GFP (Drosophila)
  binding: binds

B1: barrier-to-autointegration factor (BAF) (protein, UniProt Q9VLU0 1-90)
chain: MSGTSQKHRNFVAEPMGNKSVTELAGIGETLGGRLKDAGFDMAYTVLGQYLVLKKDEELFKDWMKEVCHASSKQASDCYNCLNDWCEEFL
[1]
  binding: binds
[2]
  binding: binds
Tws-GFP (Drosophila)
  binding: binds
[3]
  binding: binds

B2: MAN1 (protein, UniProt Q7JRE4 1-650)
chain: MSTESLNSLSDKELHRKLIQSGFPSTPVTETTRAVLIEKLRKHTRADKLKKRSNKYVLYSKEQQESPPFPQYHQYHAPQPPQNYANGLDNNNDLDQTGGSSAYNRSLDESDSSPLQLSASKMYAPPPVVASNYDGDCSPHSLGLNGKYLQPCSMPYAIDTSNNYGKPSGKAKLSDGGVVNRLLSFRDTTIQRKFNYPTGQASRIPLRKERLTRFALSDLKSFIRNPDIRPYVIPRVLISLFLIFLTIITVLYVGKRFEQSPIDKAALKYTLCNPNDMQMISEKVNCIEKDSLRGALDMSEELFRHLNERARLHHCKDANLSPALEIGEFVREMVSNPKTHRGNLHSNLMAAKYLITENPQWSIQVVDSTKHLGQTSHFELSEPNLPLKCIVLKKVTRFFTVIGALLLIVAGFLIVYVAVVIYRVKQKEALLAVDQFQKDIINELIYLSSQSESPEVVINQLQEKFLPAKKRSKLLSSWNKALKQLEKNDSRVLFGMVNRDGKAMRTIAWNRNVDKKDVGLVKKWQSPAFDNSNKIANPPTPCLKIRHMFDSSEVDQANLKQSIVESIIEKVGTRCKICDVQLDVQSCCVYIRCASEEDAGTIHKEINGWWFDKRLISIKFLRLERYLSRFPKPSAEPLYFHTNEAANTHS
[3]
  binding: binds

B3: PP2A-29B (protein, UniProt P36179 1-591)
chain: MAASDKSVDDSLYPIAVLIDELKNEDVQLRLNSIKKLSTIALALGEERTRSELIPFLTETIYDEDEVLLALADQLGNFTSLVGGPEFAMYLIPPLESLATVEETVVRDKAVESLRTVAAEHSAQDLEIHVVPTLQRLVSGDWFTSRTSACGLFSVCYPRVTQPVKAELRANFRKLCQDETPMVRRAAANKLGEFAKVVETEYLKSDLIPNFVQLAQDDQDSVRLLAVEACVSIAQLLPQDDVEHLVLPTLRQCASDSSWRVRYMVAEKFVDLQKAVGPEITRVDLVPAFQYLLKDAEAEVRAAVATKVKDFCANLDKVNQVQIILSSILPYVRDLVSDPNPHVKSALASVIMGLSPMLGAYQTVEQLLPLFLIQLKDECPEVRLNIISNLDCVNDVIGIQQLSQSLLPAIVELAEDSKWRVRLAIIEYMPALAGQLGQEFFDQKLRGLCMGWLNDHVYAIREAATLNMKKLVEQFGAPWAEQAIIPMILVMSRNKNYLHRMTCLFCLNVLAEVCGTDITTKLLLPTVLLLAADPVANVRFNVAKTLQKISPFLEASVIDAQVKPTLDKLNTDTDVDVKHFAAQAIAGIAAA
GFP-Tws (Drosophila)
  binding: binds

B4: Zw10 (protein, UniProt Q9W4X9 1-721)
chain: MEEEAPRFNVLEEAFNGNGNGCANVEATQSAILKVLTRVNRFQMRVRKHIEDNYTEFLPNNTSPDIFLEESGSLNREIHDMLENLGSEGLDALDEANVKMAGNGRQLREILLGLGVSEHVLRIDELFQCVEEAKATKDYLVLLDLVGRLRAFIYGDDSVDGDAQVATPEVRRIFKALECYETIKVKYHVQAYMLQQSLQERFDRLVQLQCKSFPTSRCVTLQVSRDQTQLQDIVQALFQEPYNPARLCEFLLDNCIEPVIMRPVMADYSEEADGGTYVRLSLSYATKEPSSAHVRPNYKQVLENLRLLLHTLAGINCSVSRDQHVFGIIGDHVKDKMLKLLVDECLIPAVPESTEEYQTSTLCEDVAQLEQLLVDSFIINPEQDRALGQFVEKYETYYRNRMYRRVLETAREIIQRDLQDMVLVAPNNHSAEVANDPFLFPRCMISKSAQDFVKLMDRILRQPTDKLGDQEADPIAGVISIMLHTYINEVPKVHRKLLESIPQQAVLFHNNCMFFTHWVAQHANKGIESLAALAKTLQATGQQHFRVQVDYQSSILMGIMQEFEFESTHTLGSGPLKLVRQCLRQLELLKNVWANVLPETVYNATFCELINTFVAELIRRVFTLRDISAQMACELSDLIDVVLQRAPTLFREPNEVVQVLSWLKLQQLKAMLNASLMEITELWGDGVGPLTASYKSDEIKHLIRALFQDTDWRAKAITQIV
[3]
  binding: binds

B5: Zwlich (protein, UniProt Q9VA00 1-641)
chain: MSASANLANVYAELMRRCGESYTITYGAPPTYLVSMVGAAEAGKKIVLVFKEDRNGAVARLRTTPTRAAPKKEGSADLDLTGSPLKDDCLVDAIADLSIDLQLDHSNPWKLEEEYQRGIPVDKARSIVCSEFLQLAEGLGSVWFLCDGSDLGQTQLLQYEFNPTHFSRGILSYQGVRPAYLVTSQALVRHHGKTPDETLIENSYQVNPHMRLRCSWTSSAALPLLVNLNDCDVALNHTFRVGDCGPLTQDFMNQLRILVYIREDIVSYHTDVKQGVSRDPTYRCGSGIDMDELRESINQTMTDVSGLIGRYSISNAEFDIEDVVQRAKVRQLTDLTDKLWELLKCCHSYKDLKIAFSMLFQCAARCNIVNTPTNKNRLAKIITELANRRLAMPCLSGAEPLELLLEIGLEKLYKDYEFIYTESKMCSTNLLKDDSSGASMDDGSPQNLPQLRKSLHNAVRGDPTPGAGMRKTLLHHHGAVNSRSTKYAGSDDDAGFKNSHFDEHESTERISKLFQIHCTLEHLLMMHIHLNLANVYNDVCSELLKKPPKLVESIDDQLSDVMDIRLSAHYVRDHLDGKDPYSRHITMRSHNKFRELKTTFYFNSENICPPNLAQCFQCDDKEMVKERTYHSWIYHKIRSLK
[3]
  binding: binds
